Reference: PubChem BioAssay AID493014 (National Center for Advancing Translational Sciences (NCATS), 2011)
Some of the results follow. The main result of the screen is listed elsewhere. These columns were measured beside it and carry no call. Most of these compounds were active or inconclusive in the main read-out, so they are no random draw. Potencies come from curve fits of mixed quality, noted in brackets.

Test: qHTS Assay to Find Inhibitors of Chronic Active B-Cell Receptor Signaling
Settings: ABC-DLBCL IkBa-CBG/CBR reporter, luminescence ratio (green luciferase fused to IkBa over red control in TMD8 lymphoma cells), 4 h
Outline: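 Cell line TMD8 (human ABC DLBCL), stably expressing tet-inducible CBG68-IkBa fusion and CBR; IMDM/0.5% FBS; cpd up to 46 uM; dox induction, 4 h, 37C/5% CO2; dual luminescence; green/red ratio; MG132 control.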

[1] = measured here: CBR red luminescence, cell number
[2] = measured here: IkBa-CBG green luminescence

| SMILES | AC50 [1] | AC50 [2] |
| --- | --- | --- |
| CC1=C/C(=N\NC(=S)NCCc2ccccc2)CC(C)(C)C1 | 35.5 µM [rising, partial curve, poor fit] |  |
| COc1ccc(N=c2oc3ccccc3cc2C(=O)Nc2ccccn2)cc1OC | 25.1 µM [falling, single point] |  |
| Cc1nn(-c2ccccc2)c(C)c1C(=O)OCC(=O)NC12CC3CC(CC(C3)C1)C2 | 35.5 µM [falling, single point] |  |
| COc1ccc(NC(=O)CSc2ccc(-c3cccs3)nn2)c(OC)c1 | 6.31 µM [falling, single point] |  |
| Cc1c(C(=O)OCc2ccccc2)[nH]c2c1C(=O)CC(c1ccco1)C2 (configuration not stated) | 5.8 µM [rising, full curve] | 6.51 µM [falling, partial curve, poor fit] |
| Cc1ccc(NC(=O)c2cc(S(=O)(=O)N3CCOCC3)cs2)cc1 | 10 µM [falling, partial curve, poor fit] |  |
| Cc1nn(C(C)c2n[nH]c(=S)n2-c2cccc(Cl)c2)c(C)c1[N+](=O)[O-] (configuration not stated) | 4.61 µM [rising, partial curve, poor fit] |  |
| COc1ccc([C@]23Cc4ccccc4C(O2)C2=C(CC(C)(C)CC2=O)O3)cc1 | 5.01 µM [rising, partial curve, poor fit] |  |
| CN1C(=O)c2ccccc2Sc2ccc(NC(=O)Cc3ccc(Cl)cc3)cc21 | 22.4 µM [falling, partial curve, poor fit] | 10 µM [rising, partial curve, poor fit] |
| O=C(Oc1ccc(F)cc1C(=O)/C=C/c1cccs1)c1cccc([N+](=O)[O-])c1 | 7.94 µM [rising, partial curve, poor fit] | 8.91 µM [falling, partial curve] |
| COc1ccc(-c2csc(/N=C/N(C)C)n2)cc1OC | 28.2 µM [rising, single point] |  |
| O=C(Nc1ccccc1)OC1CCC2CC1CCC2OC(=O)Nc1ccccc1 (configuration not stated) | 0.461 µM [rising, full curve, poor fit] |  |
| Cc1ccccc1C1c2[nH]c3ccccc3c2C[C@H]2C(=O)N(c3ccccc3C(=O)NCCN3CCOCC3)C(=O)N12 (some centres not stated) | 15.8 µM [falling, single point] |  |
| CCCCc1[nH]nc2c1C1(C(=O)N(CC)c3ccccc31)C(C#N)=C(N)O2 (configuration not stated) | 32.6 µM [falling, single point] |  |
| CCc1ccc(-c2nc(CS(=O)CC(=O)O)c(C)o2)cc1 (configuration not stated) | 10 µM [falling, partial curve] |  |
| O=C(O)c1cccc(NS(=O)(=O)c2ccc(NC(=O)c3ccco3)cc2)c1 | 35.5 µM [falling, single point] |  |
| CN1CCN(c2nc(NCCOC34CC5CC(CC(C5)C3)C4)nc(OCC(F)(F)F)n2)CC1 | 7.31 µM [falling, partial curve, poor fit] |  |
| CCCCn1c(N)c(N(CC(C)C)C(=O)CN2C(=O)NC3(CC(C)CC(C)(C)C3)C2=O)c(=O)[nH]c1=O (configuration not stated) | 0.517 µM [rising, full curve, poor fit] |  |
| Cc1ccc(-c2cc(C(=O)N/N=C/c3cccnc3)n[nH]2)o1 | 9.2 µM [falling, partial curve, poor fit] | 23.1 µM [rising, partial curve, poor fit] |

2 records drawn at random from those above, as already listed:

| SMILES | AC50 [1] | AC50 [2] |
| --- | --- | --- |
| CC1=C/C(=N\NC(=S)NCCc2ccccc2)CC(C)(C)C1 | 35.5 µM [rising, partial curve, poor fit] |  |
| CCc1ccc(-c2nc(CS(=O)CC(=O)O)c(C)o2)cc1 (configuration not stated) | 10 µM [falling, partial curve] |  |

The listing continues:

| SMILES | AC50 [1] | AC50 [2] |
| --- | --- | --- |
| CC(=O)Nc1ccc(S(=O)(=O)/N=C2\SCCN2S(=O)(=O)c2ccc(NC(C)=O)cc2)cc1 | 5.62 µM [rising, single point] |  |
| C/C(=N/NC(=O)c1ccccc1)c1ccc(NC(=O)C(F)(F)F)cc1 | 10 µM [falling, partial curve, poor fit] |  |
| Cc1ccc(NC(=S)NNC(=O)c2nn(C)cc2Cl)cc1 | 35.5 µM [falling, single point] |  |
| Cc1ccc2nc(NC(=O)c3ccco3)sc2c1 | 2.91 µM [falling, full curve] |  |
| CC1=NN(Cc2ccccc2)C(=O)C1C(c1ccc(Cl)cc1)C(C#N)C#N (configuration not stated) |  | 18.4 µM [falling, partial curve, poor fit] |
| COC(=O)Cc1c(C)nc2nc(NCc3ccccc3OC)[nH]n2c1=O | 3.98 µM [falling, partial curve, poor fit] |  |
| O=C(c1ccco1)N1CCN(C/C=C/c2ccccc2)CC1 | 10 µM [rising, partial curve, poor fit] |  |
| O=C1ON=C(c2ccc(Cl)cc2)/C1=C/c1ccc(O)cc1 | 8.91 µM [falling, partial curve, poor fit] |  |
| Cc1ccccc1OCC(=O)Nn1c(COc2ccccc2)nc2ccccc2c1=O | 10.3 µM [falling, partial curve, poor fit] |  |
| Cc1csc(NC(=O)COc2ccc3c(c2)CCC3)n1 | 13 µM [falling, single point] |  |
| COCCN(C(=O)c1cccc(N2C(=O)CCC2=O)c1)c1nc(-c2ccc([N+](=O)[O-])cc2)cs1 | 6.51 µM [rising, full curve, poor fit] |  |
| O=C1Nc2ccc(Br)cc2/C1=N/N=C/C1=C(N2CCOCC2)C(=C\c2ccccc2)/CC1 | 29.1 µM [rising, single point] |  |
| CN=C1c2c(-c3ccccc3)c3cc(OC)ccc3n2CCN1C | 16.4 µM [falling, partial curve] |  |
| O=C(N1CCOCC1)n1nnc2ccccc21 | 35.5 µM [falling, single point] |  |
| C=CCn1c(O)c(C2=c3ccccc3=NC2=O)sc1=Nc1ccc(O)cc1 | 22.4 µM [falling, single point] |  |
| O=C(Nc1ccc([N+](=O)[O-])cn1)C1CC1 | 8.2 µM [falling, partial curve, poor fit] |  |
| Clc1ccc(C2Nc3cccc4cccc(c34)N2)cc1Cl | 31.6 µM [falling, single point] |  |
| COc1ccc(Nc2nc3ccc(C)cc3n3cnnc23)cc1Cl | 0.794 µM [rising, full curve, poor fit] |  |
| O=C(CCc1c[nH]c2ccccc12)NCCc1ccc(Cl)cc1 | 0.1 µM [falling, full curve, poor fit] |  |
